Among the data in PubChem BioAssay AID445 (National Center for Advancing Translational Sciences (NCATS), 2006) are AC50 values, retold here.

The nature of this test: IkB Signaling. The following applies: ABC-DLBCL IkBa-CBG/CBR dual luciferase ratio (green luciferase fused to IkBa over red control in OCI-Ly3 lymphoma cells), 4 h. The gist of the method: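 Curves were fitted separately to fusion (green), unfused (red) and ratio luminescence, then classed by r2, magnitude and activity. Cells: OCI-Ly3, 4 h compound plus doxycycline at 37C; 10 uM MG-132 defined full response.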
The mark [1] stands for this setting: measured here: control luc red channel unless noted.
[2] abbreviates: measured here: IkB-luc green channel.
The mark [3] stands for this setting: measured here: control luc red channel.

Each structure is given as a SMILES string. Some of the results follow. Shown are side measurements of this screen, not its main read-out; they come without a call. Compounds called inactive in the main read-out are mostly missing here. The note in brackets gives the kind of curve behind each potency; many fits are weak.

On to `Cc1ccc(-n2ncc(C(=O)N(C)Cc3ccccc3)c2-n2cccc2)cc1`, for which, under setting [1], the AC50 (as a rule, the concentration giving half of the maximal activity seen) is 20 µM [falling, partial curve].

In the case of `CC(CNC(=O)c1cc2ccccn2n1)c1ccccc1` (stereo unspecified), under setting [1], the concentration at half-maximal activity (AC50) was 7.94 µM [falling, partial curve]. On to `CC(C)n1c(NCc2cc(Cl)ccc2O)nc2ccccc21`, for which the AC50 under setting [1] was 20 µM [falling, partial curve].

As for `Cc1cc(Br)ccc1NC(=O)C(NS(=O)(=O)c1cccs1)c1ccccc1` (stereo unspecified), under setting [1], the AC50 is 12.6 µM [falling, partial curve]. With `COc1ccc2c(CNCCc3ccccc3OC)c(C(=O)O)n(Cc3ccc(F)cc3Cl)c2c1`, the AC50 under setting [1] was 25.1 µM [falling, single point]. Still for that read-out and setting: under `COc1ccc(C2=NS(=O)(=O)N(C)C(C(=O)NC(C)c3ccccc3)=C2)cc1OC` (stereo unspecified) stands 0.00251 µM [falling, full curve]; under `O=C(CSc1nc(-c2ccccc2)no1)N1CCN(c2ccc(F)cc2)CC1`, 3.16 µM [falling, full curve]; under `CC1=C(C(=O)OC2CCCC2)C(c2ccc(Cl)cc2)CC(=O)N1` (stereo unspecified), 31.6 µM [falling, partial curve].

In the case of `Cc1cc(C)cc(NC(=O)CN(c2cccc(C)c2C)S(=O)(=O)c2ccccc2)c1`, the AC50 under setting [1] was 10 µM [falling, partial curve].

Turning to `Cn1ccnc1SCC(=O)c1cc2ccccc2o1`, the AC50 under setting [1] was 20 µM [falling, partial curve, poor fit]. Still for that read-out and setting: under `Cc1cc(C)cc(NC(=O)c2cc3c(=O)n(Cc4ccco4)ccc3nc2C)c1` stands 15.8 µM [falling, partial curve]; under `O=C1N(Cc2ccc3c(c2)OCO3)c2ccccc2C1(O)c1c[nH]c2ccccc12` (stereo unspecified), 10 µM [falling, partial curve]; under `O=C(COc1cccc(OC(F)F)c1)Nc1ccc(SC(F)F)cc1`, 31.6 µM [falling, single point].

Consider `Cc1cc2c(cc1S(=O)(=O)CCC(=O)N(C)Cc1ccccc1)OCC(=O)N2`, for which, under setting [1], the AC50 was 25.1 µM [falling, single point].

Take `CC1CCc2nc(NC(=O)Cc3ccc(Cl)cc3)sc2C1` (stereo unspecified): the concentration at half-maximal activity (AC50) under setting [1] was 39.8 µM [falling, single point]. Still for that read-out and setting: under `CCOc1cccc(C2c3[nH]c4ccccc4c3CCN2C(=O)Cc2cccc(OCC)c2OCC)c1` (stereo unspecified) stands 20 µM [falling, single point]; under `COc1ccc(Cl)cc1C(=O)Nc1ccccc1N1CCN(C)CC1`, 20 µM [falling, single point]. With `Cc1nn(C)c2c1c(C(F)(F)F)cc(=O)n2C(C)C(=O)NCc1ccccc1` (stereo unspecified), the AC50 under setting [1] is 12.6 µM [falling, partial curve].

For the compound `C#CCSc1nnc(-c2ccccc2)c(=O)[nH]1`, under setting [1], the concentration at half-maximal activity (AC50) is 5.01 µM [falling, partial curve]. Still for that read-out and setting: under `COc1ccc(-c2nc(CS(=O)CC(=O)NCc3ccccc3Cl)c(C)o2)cc1OC` (stereo unspecified) stands 3.16 µM [rising, partial curve, poor fit]. The same measure, in the same setting: in the case of `Cn1c(C(=O)Nc2cccc(Cl)c2)cc2c(=O)n(C)c3ccccc3c21` it was 3.16 µM [rising, partial curve]. Regarding `Cc1ccc(-c2cn3c(n2)sc2cc(C(=O)NC4CCCCCC4)ccc23)c(C)c1`, the concentration at half-maximal activity (AC50) under setting [1] was 15.8 µM [falling, partial curve]. Take `Cc1cccc(NC(c2nnc(-c3ccccc3)o2)c2ccc(F)cc2Cl)c1C` (stereo unspecified): under setting [1], the concentration at half-maximal activity (AC50) is 20 µM [falling, partial curve]. Regarding `Cc1oc2c(c(C)cc3oc(=O)c(CC(=O)NCCc4ccc(Cl)cc4)c(C)c32)c1C`, the AC50 under setting [1] was 3.98 µM [falling, single point].

Consider `COc1cccc(-c2cn3c(n2)sc2cc(C(=O)NCCc4ccccc4)ccc23)c1`, for which the AC50 under setting [1] was 20 µM [falling, partial curve]. For the compound `CCCN(C(=O)Cn1nc(Cc2cccnc2)c2ccccc2c1=O)c1ccc(C(C)C)cc1`, the concentration at half-maximal activity (AC50) under setting [1] was 31.6 µM [falling, single point]. Regarding `CCOc1ccc(CCNC(c2nnc(-c3ccccc3)o2)c2ccccc2Cl)cc1OCC` (stereo unspecified), the AC50 under setting [1] was 25.1 µM [falling, single point]. On the same count and under the same terms, under `CCCn1c2ccc(C)cc2c2nnc(SCCN3CCCCC3)nc21` stands 0.398 µM [falling, partial curve, poor fit]; under `COc1ccc(CCNC(=O)c2cc(-c3ccc(C)c(C)c3)nc3ccccc23)cc1OC`, 7.94 µM [falling, partial curve]. The same measure, in the same setting: under `O=C(CN1C(=O)CC(c2ccco2)Sc2ccccc21)Nc1ccc(OC(F)(F)F)cc1` (stereo unspecified) stands 2.51 µM [falling, partial curve]; under `O=C(NCc1ccc2c(c1)OCO2)c1ccc(-c2ccc(Cl)cc2)o1`, 12.6 µM [falling, partial curve].

In the case of `Cc1nc2c(ccc3nc(NC(=O)c4ccc5c(c4)OCCO5)sc32)s1`, the AC50 under setting [1] is 0.0794 µM [falling, full curve, poor fit]. Same read-out and setting: in the case of `CC1=C(C(=O)OC2CCCCCC2)C(c2c(Cl)cccc2Cl)CC(=O)N1` (stereo unspecified) it was 25.1 µM [falling, partial curve]; in that of `Cc1cccc(NC(=O)c2ccc(F)c(S(=O)(=O)N3CCN(c4ccc(F)cc4)CC3)c2)c1`, 15.8 µM [falling, single point].

For `Cc1ccc(-c2cn3c(n2)sc2cc(C(=O)NC4CCCCC4)ccc23)cc1`, the AC50 under setting [1] was 20 µM [falling, partial curve]. The same measure, in the same setting: in the case of `CCOc1ccccc1NC(=O)c1cn(C2CCCCC2)c(=O)c2c1c1ccccc1n2C` it was 3.16 µM [falling, full curve]. As to `COc1ccc(CCNC(=O)CCn2c(=O)c3cccn3c3ccc(F)cc32)cc1OC`, the AC50 under setting [1] is 39.8 µM [falling, single point]. Take `CCOC(=O)c1ccc(CN(Cc2ccc(Cl)cc2Cl)S(=O)(=O)c2cccc(Cl)c2)cc1`: under setting [1], the AC50 is 0.631 µM [falling, full curve]. As for `O=S1(=O)N=C(Nc2nc3c(s2)CCCC3)c2ccccc21`, the AC50 is, setting by setting: under setting [2], 31.6 µM [rising, single point]; under setting [3], 15.8 µM [falling, partial curve]. `O=C(O)CCSc1nnc(-c2ccc(Cl)cc2Cl)o1`: the half-maximal activity concentration (AC50) under setting [1] was 0.251 µM [falling, full curve]. Same read-out and setting: in the case of `Cc1ccc2nc(N(Cc3cccnc3)C(=O)CCc3ccccc3)sc2c1` it was 25.1 µM [falling, partial curve]. Still for that read-out and setting: under `CCn1c(SCC(=O)Nc2nc(-c3ccccc3)cs2)nnc1-c1ccccc1` stands 15.8 µM [falling, partial curve]; under `Cc1ccc(-n2nnnc2SCCNS(=O)(=O)c2ccccc2)cc1C`, 15.8 µM [falling, partial curve]; under `Cc1nn(-c2ccccc2)c2sc(C(=O)N(CC(=O)NC3CCCC3)Cc3ccco3)cc12`, 31.6 µM [falling, single point]. On the same count and under the same terms, under `CCCCC(=O)Nc1cccc(-c2nc3ccccc3s2)c1` stands 20 µM [falling, partial curve]; under `Cc1cccc(-n2ccnc2SCC(=O)Nc2cc(C(F)(F)F)ccc2Cl)c1`, 39.8 µM [falling, single point]; under `CCCCN(C)CC(O)Cn1cc(/C=C/C(=O)c2ccc(OCC)cc2)c2ccccc21` (stereo unspecified), 15.8 µM [falling, partial curve]. As to `O=C(NCc1ccc(F)cc1Cl)c1ccc(CSCc2ccccc2Cl)o1`, under setting [1], the half-maximal activity concentration (AC50) is 39.8 µM [falling, single point]. The same measure, in the same setting: under `Cc1ccc(NC(=O)c2cc(-c3cccs3)nc3ccccc23)c(C)c1` stands 5.01 µM [falling, partial curve]; under `CCCCN1C(=O)/C(=C2\SC(N3CCCCC3)=NC2=O)c2ccccc21`, 31.6 µM [falling, single point]. Still for that read-out and setting: in the case of `Cc1ccc(N2CCN(C(=O)Nc3cn(CC(C)C)c(=O)c4ccccc34)CC2)c(C)c1` it was 39.8 µM [falling, single point]. On to `CC(C)C(C(=O)Nc1ccccc1)N1C(=O)c2ccccc2C1=O` (stereo unspecified), for which the AC50 reads like this: under setting [2], 31.6 µM [rising, partial curve]; under setting [3], 3.98 µM [falling, partial curve]. In the case of `Cc1ccc(CNC(=O)c2ccc(CSCc3c(F)cccc3Cl)o2)cc1`, the concentration at half-maximal activity (AC50) under setting [1] is 39.8 µM [falling, single point]. For `COc1ccccc1NC(=O)N1CCOc2ccccc21`, the AC50 under setting [1] is 25.1 µM [falling, partial curve]. Same read-out and setting: in the case of `COC(=O)c1cc2oc3ccccc3c2n1CC(=O)Nc1ccc(C)cc1Cl` it was 5.01 µM [falling, full curve]. For the compound `CCn1c(C(=O)NCc2ccccc2)cc2sc(Cl)cc21`, the AC50 under setting [1] was 39.8 µM [falling, partial curve]. On the same count and under the same terms, under `Cc1ccc(CNC(=O)c2ccc(NC(=O)c3nsc4ccccc34)cc2)cc1` stands 0.251 µM [falling, full curve]; under `CCCOc1ccc(CNC(=O)c2cc3oc4ccccc4c3n2C)cc1`, 7.94 µM [falling, full curve, poor fit]; under `O=C(CSc1nc(-c2cccs2)cc(C(F)(F)F)n1)Nc1ccccc1Cl`, 39.8 µM [falling, single point]. Turning to `O=C(Nc1ccc2nc(SCC(=O)N3CCc4ccccc43)sc2c1)c1ccc(Cl)cc1`, under setting [1], the AC50 is 0.0794 µM [falling, full curve, poor fit].

Consider `Cc1cccc(C(=O)Nc2sc3c(c2C(=O)Nc2ccccc2)CCC3)c1`, for which the half-maximal activity concentration (AC50) under setting [1] is 25.1 µM [falling, partial curve]. Still for that read-out and setting: in the case of `COc1ccc(C)cc1NC(=O)Cc1ccc(NC(=O)N2CCCCc3ccccc32)cc1` it was 2.51 µM [falling, partial curve]; in that of `CCOC(=O)C1=C(CN(C)Cc2ccccc2)NC(=O)NC1c1ccc(OC(C)C)cc1` (stereo unspecified), 25.1 µM [falling, single point]. Still for that read-out and setting: in the case of `COc1ccc(-c2noc(CSc3nnc(C)n3-c3ccc(C)cc3)n2)cc1` it was 20 µM [falling, single point].
